Data from paper PMC10462637.
No constants are given. Whether binding was seen depends on the method and setting. In cells and extracts the contact can be indirect. Some entries that bind do so weakly or less than the wild type.

The chains behind the UniProt entries cited, without tags or fusion partners.
UniProt Q68E01: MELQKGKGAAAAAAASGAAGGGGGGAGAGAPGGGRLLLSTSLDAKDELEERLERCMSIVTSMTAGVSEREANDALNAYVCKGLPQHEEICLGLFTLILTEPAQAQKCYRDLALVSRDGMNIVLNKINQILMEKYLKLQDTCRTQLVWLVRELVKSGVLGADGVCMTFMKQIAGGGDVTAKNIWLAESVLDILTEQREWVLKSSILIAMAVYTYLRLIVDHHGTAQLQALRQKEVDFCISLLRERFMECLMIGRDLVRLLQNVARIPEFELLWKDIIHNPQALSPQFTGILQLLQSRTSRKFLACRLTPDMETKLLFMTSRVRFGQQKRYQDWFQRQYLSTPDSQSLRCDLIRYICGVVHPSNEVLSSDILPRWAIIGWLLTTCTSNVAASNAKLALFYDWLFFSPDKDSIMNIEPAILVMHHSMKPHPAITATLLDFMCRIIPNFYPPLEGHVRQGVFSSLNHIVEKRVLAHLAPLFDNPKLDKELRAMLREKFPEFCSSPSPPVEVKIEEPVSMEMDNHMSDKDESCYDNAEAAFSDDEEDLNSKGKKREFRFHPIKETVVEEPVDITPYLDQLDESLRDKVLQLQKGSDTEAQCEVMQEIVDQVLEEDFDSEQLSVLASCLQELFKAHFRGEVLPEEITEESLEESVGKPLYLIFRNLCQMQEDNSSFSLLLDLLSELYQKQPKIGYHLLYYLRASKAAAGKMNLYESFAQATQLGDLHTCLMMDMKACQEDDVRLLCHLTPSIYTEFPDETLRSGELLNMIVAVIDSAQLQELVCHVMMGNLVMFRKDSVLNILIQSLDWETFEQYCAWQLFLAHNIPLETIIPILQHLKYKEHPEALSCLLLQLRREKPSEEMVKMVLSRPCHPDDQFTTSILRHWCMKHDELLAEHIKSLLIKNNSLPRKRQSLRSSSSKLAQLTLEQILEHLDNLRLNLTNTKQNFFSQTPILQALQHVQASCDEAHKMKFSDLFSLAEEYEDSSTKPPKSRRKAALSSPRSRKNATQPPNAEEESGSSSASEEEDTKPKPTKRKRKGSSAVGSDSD

B1: SOSSB2-N (domain or fragment, UniProt Q96AH0 1-125)
chain: MNRVNDPLIFIRDIKPGLKNLNVVFIVLEIGRVTKTKDGHEVRSCKVADKTGSITISVWDEIGGLIQPGDIIRLTRGYASMWKGCLTLYTGRGGELQKIGEFCMVYSEVPNFSEPNPDYRGQQNK
B2: SOSSB2-C (domain or fragment, UniProt Q96AH0 125-204)
chain: KGAQSEQKNNSMNSNMGTGTFGPVGNGVHTGPESREHQFSHAGRSNGRGLINPQLQGTASNQTVMTTISNGRDPRRAFKR

Molecular target: SFB-SOSSA (UniProt Q68E01)
Assay: co-IP; 293T cells co-transfected for 24 h, lysed and sonicated in NETN buffer (0.5% NP-40, 20 mM Tris-HCl pH 8.0, 0.1 mM NaCl, 1 mM EDTA, protease inhibitor); supernatant incubated with S protein beads for 4 h, washed with NETN; Western blotting

Binder	binding
B1	binds
B2	no binding
